The list is a part of this screen's results and no random one: it is rich in T/C values a quarter to a half above the control, in often repeated tests (any T/C) and in doses without a T/C. Other doses and runs of a compound stand elsewhere. T/C gives the treated animals as a percentage of the vehicle group. Some doses have a count of surviving animals in place of a T/C: the source holds a T/C of zero for them, seemingly a mark for toxic or unscored doses. Some survivor counts are full or nearly so, which does not show that the dose was tolerated: the source hardly ever lists a survival T/C far under the control, and the zero likely stands for such cases as well. Counts of survivors are from the toxicity check (mostly the fifth day) where no day follows; animals may have died later. Schedule codes are those of the source, read here as Q, the interval in days (D) or hours (H), X, the number of doses. Some schedule codes hold Z or #, which are not explained here. Some structures stand for samples that the source files as different forms (salt, stereo form or complex); doses refer to the form tested. Where survival is the endpoint, this PubChem deposit counts one and a half times the control or more as active, and values a quarter to a half above the control carry no call in these data; other NCI protocols may use other cut-offs. Some T/C values are followed by the survivors on the day toxicity was checked, most often the fifth; without a count, all were alive then.

Drawing on PubChem BioAssay AID248 (DTP/NCI, 2004), this text covers survivor count and T/C for 28 compounds.

In the assay the test system is L1210 leukemia ip in BDF1 mice, survival T/C. Nature of the assay: NCI In Vivo Anticancer Drug Screen. Data for tumor model L1210 Leukemia (intraperitoneal) in B6D2F1 (BDF1) mice. As to conditions: T/C endpoint: mean survival time, higher T/C = longer survival.
[1] abbreviates: dose: 400.0 mg/kg/injection, schedule: Q01DX001 (ip), vehicle: saline.
Where [2] appears, read: dose: 400.0 mg/kg/injection, schedule: Q01DX009 (ip), vehicle: saline with Tween-80.
Setting [3] is: dose: 400.0 mg/kg/injection, schedule: Q04DX003 (ip), vehicle: saline with Tween-80.
Where [4] appears, read: dose: 400.0 mg/kg/injection, schedule: Q01DX001 (ip), vehicle: other.
Where [5] appears, read: dose: 100.0 mg/kg/injection, schedule: Q04DX003 (ip), vehicle: Klucel (hydroxypropylcellulose) (HPC).
Setting [6] is: dose: 200.0 mg/kg/injection, schedule: Q04DX003 (ip), vehicle: Klucel (hydroxypropylcellulose) (HPC).
Setting [7] is: dose: 400.0 mg/kg/injection, schedule: Q04DX003 (ip), vehicle: Klucel (hydroxypropylcellulose) (HPC).
Setting [8] is: dose: 200.0 mg/kg/injection, schedule: Q01DX001 (ip), vehicle: saline.
[9] abbreviates: dose: 400.0 mg/kg/injection, schedule: Q04DX002 (ip), vehicle: Klucel (hydroxypropylcellulose) (HPC).

For `C[n+]1cccc2c3ccccc3c(-c3ccccc3)cc21`, the survivor count reads like this: (dose: 12.5 mg/kg/injection, schedule: Q01DX009 (ip), vehicle: water) 3 of 6; (dose: 25.0 mg/kg/injection, schedule: Q01DX009 (ip), vehicle: water) 3 of 6; (dose: 50.0 mg/kg/injection, schedule: Q04DX003 (ip), vehicle: water) 6 of 6; (dose: 100.0 mg/kg/injection, schedule: Q04DX003 (ip), vehicle: water) 0 of 6; (dose: 200.0 mg/kg/injection, schedule: Q04DX003 (ip), vehicle: water) 0 of 6; (dose: 400.0 mg/kg/injection, schedule: Q04DX003 (ip), vehicle: water) 0 of 6.
On to `Cc1cc2cc3cccc[n+]3cc2c2ccccc12`, for which the survivor count runs as follows: (dose: 8.0 mg/kg/injection, schedule: Q01DX Z (ip), vehicle: carboxymethylcellulose (CMC)) 6 of 6; (dose: 16.0 mg/kg/injection, schedule: Q01DX Z (ip), vehicle: carboxymethylcellulose (CMC)) 0 of 6; (dose: 32.0 mg/kg/injection, schedule: Q01DX Z (ip), vehicle: carboxymethylcellulose (CMC)) 0 of 6; (dose: 64.0 mg/kg/injection, schedule: Q01DX Z (ip), vehicle: carboxymethylcellulose (CMC)) 0 of 6.
In the case of `O=S(=O)(c1ccc(NC(=S)Oc2ccccc2)cc1)c1ccc(NC(=S)Oc2ccccc2)cc1`, the survivor count under setting [1] is recorded as 1 of 4.
Regarding `COc1ccc2nc3cc(Cl)ccc3c(NCCNCCNCCNc3c4ccc(Cl)cc4nc4ccc(OC)cc34)c2c1`, the survivor count is listed as 0 of 6 (dose: 50.0 mg/kg/injection, schedule: Q01DX009 (ip), vehicle: saline with Tween-80); 3 of 6 (dose: 200.0 mg/kg/injection, schedule: Q01DX009 (ip), vehicle: saline with Tween-80); 1 of 6 under setting [2].
Consider `NCC(OCCCc1ccccc1)C(Cl)(Cl)Cl` (stereo unspecified), for which the survivor count by setting is: (dose: 100.0 mg/kg/injection, schedule: Q01DX009 (ip), vehicle: saline with Tween-80) 1 of 6; (dose: 100.0 mg/kg/injection, schedule: Q04DX003 (ip), vehicle: saline with Tween-80) 5 of 6; (dose: 200.0 mg/kg/injection, schedule: Q04DX003 (ip), vehicle: saline with Tween-80) 0 of 6; under setting [3], 0 of 6.
`Cn1c(=O)cc(CC#N)c2ccccc21`: the survivor count is, setting by setting: (dose: 200.0 mg/kg/injection, schedule: Q01DX001 (ip), vehicle: other) 0 of 6; under setting [4], 0 of 6.
In the case of `C=C1C(=O)OC2/C=C(\C)CC/C=C(\C)CC(OC(C)=O)C12` (stereo unspecified), the survivor count under setting [1] was 1 of 4.
In the case of `O=C(Nc1ccc(Cl)cc1)N1CC1`, the survivor count is reported as 6 of 6 under setting [5], 0 of 6 under setting [6] and 0 of 6 under setting [7].
For `CCCCCCCCSS(C)(=O)=O`, the survivor count is 0 of 6 (dose: 75.0 mg/kg/injection, schedule: Q01DX001 (sc), vehicle: carboxymethylcellulose (CMC)); 1 of 6 (dose: 150.0 mg/kg/injection, schedule: Q01DX001 (sc), vehicle: carboxymethylcellulose (CMC)); 0 of 6 (dose: 300.0 mg/kg/injection, schedule: Q01DX001 (sc), vehicle: carboxymethylcellulose (CMC)).
`Oc1ccc2ccccc2c1/C=N/N=C/c1c(O)ccc2ccccc12`: the survivor count by setting is: (dose: 75.0 mg/kg/injection, schedule: Q01DX009 (ip), vehicle: Klucel (hydroxypropylcellulose) (HPC)) 6 of 6; (dose: 150.0 mg/kg/injection, schedule: Q01DX009 (ip), vehicle: Klucel (hydroxypropylcellulose) (HPC)) 6 of 6.
Take `CCN(CC)C(=S)[S][Sb]([S]C(=S)N(CC)CC)[c]1ccccc1`: the survivor count under setting [4] is listed as 2 of 4.
As for `O=C(N/N=C/c1ccc(Cl)cc1Cl)c1cccc2ccccc12`, the survivor count under setting [8] is recorded as 4 of 4.
Take `c1ccc(C[n+]2ccc3ccccc3c2)cc1`: the survivor count runs as follows: (dose: 75.0 mg/kg/injection, schedule: Q01DX001 (ip), vehicle: saline) 2 of 6; (dose: 100.0 mg/kg/injection, schedule: Q04DX003 (ip), vehicle: saline) 2 of 6; (dose: 150.0 mg/kg/injection, schedule: Q01DX001 (ip), vehicle: saline) 0 of 6; (dose: 200.0 mg/kg/injection, schedule: Q04DX003 (ip), vehicle: saline) 0 of 6; (dose: 300.0 mg/kg/injection, schedule: Q01DX001 (ip), vehicle: saline) 0 of 6.
Consider `Nc1ncnc2c1ncn2C1OC(COC(=O)C2C3CC4CC(C3)CC2C4)C(O)C1O` (stereo unspecified), for which the survivor count is listed as 2 of 4 under setting [8] and 0 of 4 under setting [1].
Turning to `CC(C)CCNc1ccc(NCCC(C)C)cc1`, the survivor count is 2 of 6 under setting [5]; 2 of 6 (dose: 115.0 mg/kg/injection, schedule: Q01DX009 (ip), vehicle: alcohol); 0 of 6 (dose: 170.0 mg/kg/injection, schedule: Q01DX009 (ip), vehicle: alcohol); 0 of 6 under setting [6]; 0 of 6 under setting [7].
In the case of `O=C(O)/C(Br)=C\c1ccc(Br)o1`, under setting [9], the survivor count was 1 of 3.
As to `COC1C(OC(N)=O)C(O)C(Oc2ccc3c(O)c(NC(=O)c4ccc(O)c(CC=C(C)C)c4)c(=O)oc3c2C)OC1(C)C` (stereo unspecified), the survivor count (dose: 400.0 mg/kg/injection, schedule: Q01DX Z (ip), vehicle: saline) was 0 of 6.
`C(=NCCN=Cc1c[nH]c2ccccc12)c1c[nH]c2ccccc12`: the survivor count is on record as 4 of 6 under setting [2] and 4 of 6 under setting [3].
With `COC(=O)C1C2CC3c4[nH]c5cc(OC)ccc5c4CCN3CC2CC(OC2CCCCO2)C1OC` (stereo unspecified), the survivor count by setting is: under setting [6], 2 of 4; under setting [7], 4 of 4.
On to `CCN(CC)CCOc1ccccc1OC`, for which the survivor count reads like this: (dose: 100.0 mg/kg/injection, schedule: Q01DX009 (ip), vehicle: saline) 0 of 6; (dose: 200.0 mg/kg/injection, schedule: Q01DX009 (ip), vehicle: saline) 0 of 6; under setting [1], 0 of 6; (dose: 400.0 mg/kg/injection, schedule: Q01DX009 (ip), vehicle: saline) 0 of 6.
Turning to `Clc1c(C(Cl)(Cl)Cl)nc2ccccc2c1Cl`, the survivor count was 1 of 3 (dose: 100.0 mg/kg/injection, schedule: Q01DX009 (ip), vehicle: Klucel (hydroxypropylcellulose) (HPC)) and 0 of 3 (dose: 200.0 mg/kg/injection, schedule: Q01DX009 (ip), vehicle: Klucel (hydroxypropylcellulose) (HPC)).
With `N#Cc1c(Br)n(C2OC(CO)C(O)C2O)c2ncnc(N)c12` (stereo unspecified), the T/C is, setting by setting: under setting [8], 127 % of control; (dose: 600.0 mg/kg/injection, schedule: Q01DX001 (ip), vehicle: saline) 131 % of control [5 of 6 alive]. Moreover, the survivor count under setting [1] is listed as 3 of 6.
As to `O=C1NC(=O)N(c2ccc(Cl)cc2)C1=O`, the survivor count (dose: 400.0 mg/kg/injection, schedule: Q04DX002 (ip), vehicle: saline with Tween-80) is listed as 0 of 3.
With `[C-]#[N+]CCc1ccccc1`, the survivor count (dose: 400.0 mg/kg/injection, schedule: Q01DX001 (ip), vehicle: saline with Tween-80) was 0 of 6.
`CCCC(=O)N1CCCCC1C` (stereo unspecified): the survivor count under setting [9] is 0 of 3.
Consider `CCc1ccccc1NC(=O)c1cccc(C(=O)Nc2ccccc2CC)c1`, for which, under setting [7], the survivor count is 5 of 6.
In the case of `COC(=O)/C(C#N)=N/O`, the survivor count under setting [3] is 1 of 6.
In the case of `CC1(C)N=C(N)N=C(N)N1c1ccc(CCNC(=O)c2ccc(S(=O)(=O)F)cc2)cc1`, the survivor count runs as follows: (dose: 100.0 mg/kg/injection, schedule: Q01DX001 (ip), vehicle: Klucel (hydroxypropylcellulose) (HPC)) 2 of 6; (dose: 200.0 mg/kg/injection, schedule: Q01DX001 (ip), vehicle: Klucel (hydroxypropylcellulose) (HPC)) 2 of 6; (dose: 400.0 mg/kg/injection, schedule: Q01DX001 (ip), vehicle: Klucel (hydroxypropylcellulose) (HPC)) 1 of 6.
